Measurements reported in PubChem BioAssay AID1259254 (NCATS, 2017).
Here is a random part of about 59,000 reagents tested. Over the whole deposit, about 1,550 (2.6%) were called active. 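G2 share is only a proxy for re-replication; each gene was hit by three separate siRNAs, and active genes were retested.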 The numbers tell different reagents against one gene apart. Not all columns of the deposit are shown. No sequences are given here. The record does not give: the amount of reagent.

Aim: 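Finding genes that stop cells copying their DNA twice in one cycle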 (primary screen)
Cell system: human HCT116 colorectal cancer cells
Reagents: single siRNA against human genes
Timing: 3 days
Detection: 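Imaged Hoechst DNA stain sorts each cell into a cycle phase by DNA amount; per plate, G2 fraction set to 0% for non-targeting and 100% for GMNN siRNA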
Direction: G2 robust z-score: higher = more G2 cells, more excess DNA replication
Rule for the call: 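An siRNA counts as active if its G2 robust z-score lies at least 5 MADs above the screen median; here such calls match roughly 38% of GMNN control or more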

SMAGP #1: G2 robust z-score = 0.751; activity call = inactive
SMAGP #2: G2 robust z-score = 1.06; activity call = inactive
SMAGP #3: G2 robust z-score = -0.943; activity call = inactive
KCNQ5 #1: G2 robust z-score = -0.503; activity call = inactive
KCNQ5 #2: G2 robust z-score = 1.22; activity call = inactive
KCNQ5 #3: G2 robust z-score = -0.29; activity call = inactive
SLC25A2 #1: G2 robust z-score = -0.0754; activity call = inactive
SLC25A2 #2: G2 robust z-score = 8.18; activity call = active
SLC25A2 #3: G2 robust z-score = -0.196; activity call = inactive
OR2T6 #1: G2 robust z-score = 0.282; activity call = inactive
OR2T6 #2: G2 robust z-score = 0.139; activity call = inactive
OR2T6 #3: G2 robust z-score = 0.495; activity call = inactive
SPANXN4 #1: G2 robust z-score = -0.352; activity call = inactive
SPANXN4 #2: G2 robust z-score = -0.486; activity call = inactive
SPANXN4 #3: G2 robust z-score = -0.472; activity call = inactive
SEL1L3 #1: G2 robust z-score = 1.53; activity call = inactive
SEL1L3 #2: G2 robust z-score = 0.969; activity call = inactive
SEL1L3 #3: G2 robust z-score = -0.658; activity call = inactive
ZKSCAN2 #1: G2 robust z-score = -0.715; activity call = inactive
ZKSCAN2 #2: G2 robust z-score = 0.26; activity call = inactive
ZKSCAN2 #3: G2 robust z-score = 0.192; activity call = inactive
GUCY1A2 #1: G2 robust z-score = 0.0475; activity call = inactive
GUCY1A2 #2: G2 robust z-score = -0.326; activity call = inactive
GUCY1A2 #3: G2 robust z-score = -0.4; activity call = inactive
ARMC1 #1: G2 robust z-score = -0.257; activity call = inactive
ARMC1 #2: G2 robust z-score = 2.11; activity call = inactive
ARMC1 #3: G2 robust z-score = 1.63; activity call = inactive
SETP20 #1: G2 robust z-score = -0.755; activity call = inactive
SETP20 #2: G2 robust z-score = -0.814; activity call = inactive
SETP20 #3: G2 robust z-score = -0.29; activity call = inactive

Reagents listed so far with an active call (1):
SLC25A2 #2: G2 robust z-score = 8.18; activity call = active
